PubChem BioAssay AID652259, Drosophila RNAi Screening Center, 2013

Assay: 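Genome-wide hunt for genes that control Wingless pathway activity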 (primary screen)
Cell system: Drosophila clone 8 imaginal disc epithelial cells
Knock-down reagent: long dsRNA against Drosophila genes
Treatment: pathway stimulated by co-transfected Wingless expression plasmid
Read-out: 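Dual luciferase reads per well after Wingless plasmid stimulation: reporter firefly light and Renilla control light; activity is firefly divided by Renilla, a ratio not deposited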
Reading the numbers: firefly reporter light: higher = more Wg reporter light, before normalisation; Renilla control light: higher = more transfected or surviving cells
Hit rule: 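Strong candidates differ from their plate mean by at least two out of four per-plate statistical tests; weak candidates meet just one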
Meaning of the calls: active = candidate regulator (raises or lowers reporter); inactive = not a candidate
In all, the deposit lists about 22,000 reagents; shown is an unselected part of those that have a named target and a result. Of all reagents, 233 (1.1%) are marked active. 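Light values are raw, unnormalised plate reads; the ratio scores behind the reporter calls were not deposited.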 Entries without a mark were called inactive. Names joined by + are all predicted targets of the reagent. Reagent sequences are not shown. Not given: the amount of reagent, the time to read-out, the dose of the treatment.

Gene	DRSC id	firefly reporter light, replicate 1	firefly reporter light, replicate 2	Renilla control light, replicate 1	Renilla control light, replicate 2
Gr64d + Gr64e	DRSC08446	7088	8.45e5	3565	4.27e5
Pgls (6-phosphogluconolactonase)	DRSC19769	17289		8301	
CG34029	DRSC03909	16114		8508	
CG13659	DRSC14660	24192		17546	
CG5359	DRSC15780	10325		1843	
Or71a (Odorant receptor 71a)	DRSC11244	5721		2085	
CG3868	DRSC10380	2707		1181	
Atg5 (Autophagy-related 5)	DRSC18112	2267	7546	976	2384
DIP-iota (Dpr-interacting protein iota)	DRSC02140	1926	7657	693	2321
Spf45	DRSC03826	2293	7475	833	2491
Mulk (Multi-substrate lipid kinase)	DRSC02658	6592		2181	
mrva (minerva)	DRSC11009	8149		3325	
mrva (minerva)	DRSC21842	5.97e5	5.57e5	2.68e5	3.02e5
Polr2F (RNA polymerase II, I and III subunit F)	DRSC12366	20696		3296	
CG32214	DRSC09613	4396		2130	

In a second layout: results already given
{"Gene": "CG3868", "DRSC id": "DRSC10380", "firefly reporter light, replicate 1": 2707, "Renilla control light, replicate 1": 1181}
{"Gene": "Atg5 (Autophagy-related 5)", "DRSC id": "DRSC18112", "firefly reporter light, replicate 1": 2267, "firefly reporter light, replicate 2": 7546, "Renilla control light, replicate 1": 976, "Renilla control light, replicate 2": 2384}
{"Gene": "DIP-iota (Dpr-interacting protein iota)", "DRSC id": "DRSC02140", "firefly reporter light, replicate 1": 1926, "firefly reporter light, replicate 2": 7657, "Renilla control light, replicate 1": 693, "Renilla control light, replicate 2": 2321}
{"Gene": "Spf45", "DRSC id": "DRSC03826", "firefly reporter light, replicate 1": 2293, "firefly reporter light, replicate 2": 7475, "Renilla control light, replicate 1": 833, "Renilla control light, replicate 2": 2491}

Further entries follow.
Gene	DRSC id	firefly reporter light, replicate 1	firefly reporter light, replicate 2	Renilla control light, replicate 1	Renilla control light, replicate 2
FucTA (alpha1,3-fucosyltransferase A)	DRSC10733	6992		2643	
CG15199	DRSC19646	16545		7033	
CG15642	DRSC19678	17257		8141	
Cpr97Ea (Cuticular protein 97Ea)	DRSC15974	9895		3078	
Crys (Crystallin)	DRSC03294	8723		2375	
CG5078	DRSC11762	12460		3238	
Sec61gamma (Sec61 gamma subunit)	DRSC19570	18889		9861	
Osi5 (Osiris 5)	DRSC12276	19168		4640	
CG34234 + Dh44-R2	DRSC07278	9542		2025	
Smyd4-2 (SET and MYND domain containing, class 4, member 2)	DRSC10126	8153		2470	
ppk3 (pickpocket 3)	DRSC04275	2876	7004	988	2812
Ance-2	DRSC02539	2153	6529	849	2832
Or98a (Odorant receptor 98a)	DRSC16774	5731		2384	
Cubn2 (Cubilin 2)	DRSC10561	9185		3549	
Cubn2 (Cubilin 2)	DRSC22044	4.64e5	4.81e5	2.10e5	1.96e5
